PubChem BioAssay AID1259289 – Sanger Institute | 2017
The deposit covers 794 reagents; shown is a part drawn at random. 16 of them (2%) were called active. 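Active marks cell loss from silencing alone; drug synergy shows only in the synergy scores, not the calls.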 Not all columns of the deposit are shown. The record does not give: the amount of reagent, the time to read-out.

Test: 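Find kinases whose loss adds to targeted drugs in killing bowel cancer cells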 (primary screen)
System: human LS513 colorectal cancer cells
Reagents: siRNA pool against human genes
Conditions: anchor drug BYL719 at 1 µM, cetuximab at 5 µg/ml or trametinib at 10 nM, or DMSO vehicle alone; exposure time not given
Measured: 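Survival versus non-targeting pool for each arm averaged over replicates, robust z-score in the arm with DMSO only, and synergy scores for BYL719, cetuximab or trametinib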
Reading the numbers: robust z-score, siRNA alone (DMSO): higher = more viable cells; strongly negative means essential
Hit rule: 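a gene counts as active if its DMSO-only robust z-score falls under -3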
Meaning of the calls: active = essential (knock-down alone); inactive = not essential

STRADB (STE20 related adaptor beta) → robust z-score, siRNA alone (DMSO): -0.115; activity call: inactive
CDKN2B (cyclin dependent kinase inhibitor 2B) → robust z-score, siRNA alone (DMSO): 0.561; activity call: inactive
MAP3K21 (mitogen-activated protein kinase kinase kinase 21) → robust z-score, siRNA alone (DMSO): 0.561; activity call: inactive
MAP3K20 (mitogen-activated protein kinase kinase kinase 20) → robust z-score, siRNA alone (DMSO): 0.561; activity call: inactive
EPHB4 (EPH receptor B4) → robust z-score, siRNA alone (DMSO): -1.25; activity call: inactive
CHEK1 (checkpoint kinase 1) → robust z-score, siRNA alone (DMSO): -2.88; activity call: inactive
CDK11A (cyclin dependent kinase 11A) → robust z-score, siRNA alone (DMSO): -1.54; activity call: inactive
CTCF (CCCTC-binding factor) → robust z-score, siRNA alone (DMSO): -0.809; activity call: inactive

3 entries already listed, sorted by “robust z-score, siRNA alone (DMSO)”, lowest first.
CHEK1 (checkpoint kinase 1) → robust z-score, siRNA alone (DMSO): -2.88; activity call: inactive
EPHB4 (EPH receptor B4) → robust z-score, siRNA alone (DMSO): -1.25; activity call: inactive
MAP3K20 (mitogen-activated protein kinase kinase kinase 20) → robust z-score, siRNA alone (DMSO): 0.561; activity call: inactive

The results go on:
CLK4 (CDC like kinase 4) → robust z-score, siRNA alone (DMSO): -0.0167; activity call: inactive
EFNA5 (ephrin A5) → robust z-score, siRNA alone (DMSO): 0.561; activity call: inactive
STK3 (serine/threonine kinase 3) → robust z-score, siRNA alone (DMSO): 0.561; activity call: inactive
IRAK1 (interleukin 1 receptor associated kinase 1) → robust z-score, siRNA alone (DMSO): 0.561; activity call: inactive
DLG1 (discs large MAGUK scaffold protein 1) → robust z-score, siRNA alone (DMSO): 0.561; activity call: inactive
NUAK1 (NUAK family kinase 1) → robust z-score, siRNA alone (DMSO): -2.55; activity call: inactive
TRIB1 (tribbles pseudokinase 1) → robust z-score, siRNA alone (DMSO): 0.561; activity call: inactive
TSSK6 (testis specific serine kinase 6) → robust z-score, siRNA alone (DMSO): 0.28; activity call: inactive
EPHA1 (EPH receptor A1) → robust z-score, siRNA alone (DMSO): 0.469; activity call: inactive
TNK1 (tyrosine kinase non receptor 1) → robust z-score, siRNA alone (DMSO): 0.561; activity call: inactive
SBK1 (SH3 domain binding kinase 1) → robust z-score, siRNA alone (DMSO): 0.561; activity call: inactive
